PubChem BioAssay AID743458 | Peter MacCallum Cancer Centre | 2014
Assay: 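Identify genes whose loss lifts vorinostat resistance in colon cancer cells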 (follow-up of hits). System: human HCT116-VR colon cancer cells made resistant to vorinostat. Reagent: single siRNA or pool against human genes, 25 nM per single siRNA. Duration: about 72 h after transfection, including 24 h of drug. Challenge: vorinostat, 2.5 µM final, for 24 h. Measured: 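Live-cell fluorescent viability and luminescent caspase 3/7 activity after vorinostat treatment, background subtracted, mean of duplicate plates, as fold change over mock-transfected wells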. Reading the numbers: viability relative to mock: higher = more living cells than mock; caspase activity relative to mock: higher = more apoptosis than mock. Active means: 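An siRNA counts as active if classed as reduced viability or as caspase activation, otherwise inactive; a hit class needed wells that remained healthy in the absence of drug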.
The whole screen tested about 1,800 reagents; below is a random part of them. Over the whole deposit, 732 (41%) were called active. 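Calls are per siRNA reagent; a gene was deemed confirmed only if most of its four siRNAs scored.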 A number with no mark means an inactive call. The numbers tell different reagents against one gene apart.

gene knocked down	reagent no.	viability relative to mock	caspase activity relative to mock	viability hit class	caspase hit class
BEND6	1	1.09	1.19	no change	no change
BEND6	2	0.9	1.07	no change	no change
BEND6	3	0.99	1.07	no change	no change
BEND6	4	0.54 (active)	5.56	reduced viability	caspase activation
CD79A	1	0.2 (active)	4.62	reduced viability	caspase activation
CD79A	2	0.7 (active)	3.84	no change	caspase activation
CD79A	3	0.76	1.9	no change	no change
CD79A	4	0.68	2.05	no change	no change
NUP93	1	0.53 (active)	3.21	reduced viability	caspase activation
NUP93	2	0.54 (active)	3.11	reduced viability	caspase activation
NUP93	3	0.66	1.5	no change	no change
NUP93	4	0.41 (active)	2.79	reduced viability	caspase activation
RECK	1	0.84	2.44	no change	no change
RECK	2	0.54 (active)	6.41	reduced viability	caspase activation
RECK	3	0.94	1.64	no change	no change
RECK	4	0.8	1.21	no change	no change
GLI1	1	0.84 (active)	2.76	no change	caspase activation
GLI1	2	0.9 (active)	2.79	no change	caspase activation
GLI1	3	0.5 (active)	0.6	reduced viability	no change
GLI1	4	0.74 (active)	3.31	no change	caspase activation
HOXA2	1	0.7 (active)	3.66	no change	caspase activation
HOXA2	2	0.87	2.04	no change	no change
HOXA2	3	0.95	2.1	no change	no change
HOXA2	4	0.9	1.36	no change	no change
CDK14	1	0.84	1.17	no change	no change
CDK14	2	0.9	1.64	no change	no change
CDK14	3	0.78	1.99	no change	no change
CDK14	4	0.52 (active)	3.21	reduced viability	caspase activation
BDP1	1	0.9	1.08	no change	no change
BDP1	2	0.52 (active)	0.79	reduced viability	no change
BDP1	3	0.42 (active)	1.3	reduced viability	no change
BDP1	4	0.56 (active)	0.84	reduced viability	no change
SAMD8	1	0.85 (active)	3.58	no change	caspase activation
SAMD8	2	0.22 (active)	2.79	reduced viability	caspase activation
SAMD8	3	0.94	2.07	no change	no change
SAMD8	4	0.79	1.99	no change	no change
CACNA1A	1	0.36 (active)	2.2	reduced viability	no change
CACNA1A	2	0.84 (active)	3.69	no change	caspase activation
CACNA1A	3	0.82	0.88	no change	no change
CACNA1A	4	0.98	1.19	no change	no change
SYVN1	1	0.96	1.38	no change	no change
SYVN1	2	0.89	2.08	no change	no change
SYVN1	3	0.78	1.62	no change	no change
SYVN1	4	0.94	1.36	no change	no change
NAT8B	1	0.28 (active)	4	reduced viability	caspase activation
NAT8B	2	0.93	1.04	no change	no change
NAT8B	3	0.94	0.99	no change	no change
NAT8B	4	0.77	1.02	no change	no change
ITGB1BP2	1	1.1	1	no change	no change
ITGB1BP2	2	1.04	1.83	no change	no change
ITGB1BP2	3	0.82	0.72	no change	no change
ITGB1BP2	4	0.83	2.25	no change	no change
FGFRL1	1	0.39 (active)	1.96	reduced viability	no change
FGFRL1	2	0.9	0.77	no change	no change
FGFRL1	3	0.68	2.14	no change	no change
FGFRL1	4	0.88	2.54	no change	no change
RTKN	1	0.66 (active)	4.03	no change	caspase activation
RTKN	2	0.6 (active)	2.82	no change	caspase activation
RTKN	3	0.8	1.17	no change	no change
RTKN	4	0.68	1.4	no change	no change
